Assay results: US12729225B2, “Non-canonical SWI/SNF complex and uses thereof” (Dana-Farber Cancer Institute, Inc., priority 2018, dated 2026)

System: mSWI/SNF complexes
Test: mSWI/SNF complex purification with HA-tagged baits and mass spectrometry (peptide counts)
Set-up: species or system human
[1] = 293_HA-BRD7: HA-BRD7 bait purification, total peptide count per co-purified protein
[2] = 293_HA-BRD7: HA-BRD7 bait purification, unique peptide count per co-purified protein
[3] = total peptide count of the co-purified protein, 293_HA-BRD9 (HA-BRD9 bait, mass spectrometry), Table 3b
[4] = unique peptide count of the co-purified protein, 293_HA-BRD9 (HA-BRD9 bait, mass spectrometry), Table 3b

Row | Molecule | Total [1] | Unique [2] | Total [3] | Unique [4] | Total (293_HA-BRD7 bait purification, mass spectrometry, total peptides per co-purified protein) | Unique (293_HA-BRD7 bait purification, mass spectrometry, unique peptides per co-purified protein)
1 | DDX5 (protein, UniProt P17844 1-614, looked up) Probable ATP-dependent RNA …: MSGYSSDRDRGRDRGFGAPRFGGSRAGPLSGKKFGNPGEKLVKKKWNLDELPKFEKNFYQEHPDLARRTAQEVETYRRSKEITVRGHNCPKPVLNFYEANFPANVMDVIARQNFTEPTAIQAQGWPVALSGLDMVGVAQTGSGKTLSYLLPAIVHINHQPFLERGDGPICLVLAPTRELAQQVQQVAAEYCRACRLKSTCIYGGAPKGPQIRDLERGVEICIATPGRLIDFLECGKTNLRRTTYLVLDEADRMLDMGFEPQIRKIVDQIRPDRQTLMWSATWPKEVRQLAEDFLKDYIHINIGALELSANHNILQIVDVCHDVEKDEKLIRLMEEIMSEKENKTIVFVETKRRCDELTRKMRRDGWPAMGIHGDKSQQERDWVLNEFKHGKAPILIATDVASRGLDVEDVKFVINYDYPNSSEDYIHRIGRTARSTKTGTAYTFFTPNNIKQVSDLISVLREANQAINPKLLQLVEDRGSGRSRGRGGMKDDRRDRYSAGKRGGFNTFRDRENYDRGYSSLLKRDFGAKTQNGVYSAANYTNGSFGSNFVSAGIQTSFRTGNPTGTYQNGYDSTQQYGSNVPNMHNGMNQQAYAYPATAAAPMIGYPMPTGYSQ | 8 | 7 | 2 | 2 |  | 
2 | MYBBP1A (protein, UniProt Q9BQG0 1-1328, looked up) Myb-binding protein 1A: MESRDPAQPMSPGEATQSGARPADRYGLLKHSREFLDFFWDIAKPEQETRLAATEKLLEYLRGRPKGSEMKYALKRLITGLGVGRETARPCYSLALAQLLQSFEDLPLCSILQQIQEKYDLHQVKKAMLRPALFANLFGVLALFQSGRLVKDQEALMKSVKLLQALAQYQNHLQEQPRKALVDILSEVSKATLQEILPEVLKADLNIILSSPEQLELFLLAQQKVPSKLKKLVGSVNLFSDENVPRLVNVLKMAASSVKKDRKLPAIALDLLRLALKEDKFPRFWKEVVEQGLLKMQFWPASYLCFRLLGAALPLLTKEQLHLVMQGDVIRHYGEHVCTAKLPKQFKFAPEMDDYVGTFLEGCQDDPERQLAVLVAFSSVTNQGLPVTPTFWRVVRFLSPPALQGYVAWLRAMFLQPDLDSLVDFSTNNQKKAQDSSLHMPERAVFRLRKWIIFRLVSIVDSLHLEMEEALTEQVARFCLFHSFFVTKKPTSQIPETKHPFSFPLENQAREAVSSAFFSLLQTLSTQFKQAPGQTQGGQPWTYHLVQFADLLLNHSHNVTTVTPFTAQQRQAWDRMLQTLKELEAHSAEARAAAFQHLLLLVGIHLLKSPAESCDLLGDIQTCIRKSLGEKPRRSRTKTIDPQEPPWVEVLVEILLALLAQPSHLMRQVARSVFGHICSHLTPRALQLILDVLNPETSEDENDRVVVTDDSDERRLKGAEDKSEEGEDNRSSESEEESEGEESEEEERDGDVDQGFREQLMTVLQAGKALGGEDSENEEELGDEAMMALDQSLASLFAEQKLRIQARRDEKNKLQKEKALRRDFQIRVLDLVEVLVTKQPENALVLELLEPLLSIIRRSLRSSSSKQEQDLLHKTARIFTHHLCRARRYCHDLGERAGALHAQVERLVQQAGRQPDSPTALYHFNASLYLLRVLKGNTAEGCVHETQEKQKAGTDPSHMPTGPQAASCLDLNLVTRVYSTALSSFLTKRNSPLTVPMFLSLFSRHPVLCQSLLPILVQHITGPVRPRHQACLLLQKTLSMREVRSCFEDPEWKQLMGQVLAKVTENLRVLGEAQTKAQHQQALSSLELLNVLFRTCKHEKLTLDLTVLLGVLQGQQQSLQQGAHSTGSSRLHDLYWQAMKTLGVQRPKLEKKDAKEIPSATQSPISKKRKKKGFLPETKKRKKRKSEDGTPAEDGTPAATGGSQPPSMGRKKRNRTKAKVPAQANGTPTTKSPAPGAPTRSPSTPAKSPKLQKKNQKPSQVNGAPGSPTEPAGQKQHQKALPKKGVLGKSPLSALARKKARLSLVIRSPSLLQSGAKKKAQVRKAGKP | 16 | 16 | 2 | 2 |  | 
3 | RBM14 (protein, UniProt Q96PK6 1-669, looked up) RNA-binding protein 14: MKIFVGNVDGADTTPEELAALFAPYGTVMSCAVMKQFAFVHMRENAGALRAIEALHGHELRPGRALVVEMSRPRPLNTWKIFVGNVSAACTSQELRSLFERRGRVIECDVVKDYAFVHMEKEADAKAAIAQLNGKEVKGKRINVELSTKGQKKGPGLAVQSGDKTKKPGAGDTAFPGTGGFSATFDYQQAFGNSTGGFDGQARQPTPPFFGRDRSPLRRSPPRASYVAPLTAQPATYRAQPSVSLGAAYRAQPSASLGVGYRTQPMTAQAASYRAQPSVSLGAPYRGQLASPSSQSAAASSLGPYGGAQPSASALSSYGGQAAAASSLNSYGAQGSSLASYGNQPSSYGAQAASSYGVRAAASSYNTQGAASSLGSYGAQAASYGAQSAASSLAYGAQAASYNAQPSASYNAQSAPYAAQQAASYSSQPAAYVAQPATAAAYASQPAAYAAQATTPMAGSYGAQPVVQTQLNSYGAQASMGLSGSYGAQSAAAATGSYGAAAAYGAQPSATLAAPYRTQSSASLAASYAAQQHPQAAASYRGQPGNAYDGAGQPSAAYLSMSQGAVANANSTPPPYERTRLSPPRASYDDPYKKAVAMSKRYGSDRRLAELSDYRRLSESQLSFRRSPTKSSLDYRRLPDAHSDYARYSGSYNDYLRAAQMHSGYQRRM | 5 | 5 | 2 | 2 |  | 
4 | ATAD3A (protein, UniProt Q9NVI7 2-586, looked up) ATPase family AAA …: SWLFGINKGPKGEGAGPPPPLPPAQPGAEGGGDRGLGDRPAPKDKWSNFDPTGLERAAKAARELEHSRYAKDALNLAQMQEQTLQLEQQSKLKEYEAAVEQLKSEQIRAQAEERRKTLSEETRQHQARAQYQDKLARQRYEDQLKQQQLLNEENLRKQEESVQKQEAMRRATVEREMELRHKNEMLRVEAEARARAKAERENADIIREQIRLKAAEHRQTVLESIRTAGTLFGEGFRAFVTDWDKVTATVAGLTLLAVGVYSAKNATLVAGRFIEARLGKPSLVRETSRITVLEALRHPIQVSRRLLSRPQDALEGVVLSPSLEARVRDIAIATRNTKKNRSLYRNILMYGPPGTGKTLFAKKLALHSGMDYAIMTGGDVAPMGREGVTAMHKLFDWANTSRRGLLLFVDEADAFLRKRATEKISEDLRATLNAFLYRTGQHSNKFMLVLASNQPEQFDWAINDRINEMVHFDLPGQEERERLVRMYFDKYVLKPATEGKQRLKLAQFDYGRKCSEVARLTEGMSGREIAQLAVSWQATAYASEDGVLTEAMMDTRVQDAVQQHQQKMCWLKAEGPGRGDEPSPS | 20 | 16 | 2 | 2 |  | 
5 | NOP2 (protein, UniProt P46087 1-812, looked up) 28S rRNA …: MGRKLDPTKEKRGPGRKARKQKGAETELVRFLPAVSDENSKRLSSRARKRAAKRRLGSVEAPKTNKSPEAKPLPGKLPKGISAGAVQTAGKKGPQSLFNAPRGKKRPAPGSDEEEEEEDSEEDGMVNHGDLWGSEDDADTVDDYGADSNSEDEEEGEALLPIERAARKQKAREAAAGIQWSEEETEDEEEEKEVTPESGPPKVEEADGGLQINVDEEPFVLPPAGEMEQDAQAPDLQRVHKRIQDIVGILRDFGAQREEGRSRSEYLNRLKKDLAIYYSYGDFLLGKLMDLFPLSELVEFLEANEVPRPVTLRTNTLKTRRRDLAQALINRGVNLDPLGKWSKTGLVVYDSSVPIGATPEYLAGHYMLQGASSMLPVMALAPQEHERILDMCCAPGGKTSYMAQLMKNTGVILANDANAERLKSVVGNLHRLGVTNTIISHYDGRQFPKVVGGFDRVLLDAPCSGTGVISKDPAVKTNKDEKDILRCAHLQKELLLSAIDSVNATSKTGGYLVYCTCSITVEENEWVVDYALKKRNVRLVPTGLDFGQEGFTRFRERRFHPSLRSTRRFYPHTHNMDGFFIAKFKKFSNSIPQSQTGNSETATPTNVDLPQVIPKSENSSQPAKKAKGAAKTKQQLQKQQHPKKASFQKLNGISKGADSELSTVPSVTKTQASSSFQDSSQPAGKAEGIREPKVTGKLKQRSPKLQSSKKVAFLRQNAPPKGTDTQTPAVLSPSKTQATLKPKDHHQPLGRAKGVEKQQLPEQPFEKAAFQKQNDTPKGPQPPTVSPIRSSRPPPAKRKKSQSRGNSQLLLS |  |  | 2 | 2 | 2 | 2
6 | CEBPZ (protein, UniProt Q03701 1-1054, looked up) CCAAT/enhancer-binding …: MAAVKEPLEFHAKRPWRPEEAVEDPDEEDEDNTSEAENGFSLEEVLRLGGTKQDYLMLATLDENEEVIDGGKKGAIDDLQQGELEAFIQNLNLAKYTKASLVEEDEPAEKENSSKKEVKIPKINNKNTAESQRTSVNKVKNKNRPEPHSDENGSTTPKVKKDKQNIFEFFERQTLLLRPGGKWYDLEYSNEYSLKPQPQDVVSKYKTLAQKLYQHEINLFKSKTNSQKGASSTWMKAIVSSGTLGDRMAAMILLIQDDAVHTLQFVETLVNLVKKKGSKQQCLMALDTFKELLITDLLPDNRKLRIFSQRPFDKLEQLSSGNKDSRDRRLILWYFEHQLKHLVAEFVQVLETLSHDTLVTTKTRALTVAHELLCNKPEEEKALLVQVVNKLGDPQNRIATKASHLLETLLCKHPNMKGVVSGEVERLLFRSNISSKAQYYAICFLNQMALSHEESELANKLITVYFCFFRTCVKKKDVESKMLSALLTGVNRAYPYSQTGDDKVREQIDTLFKVLHIVNFNTSVQALMLLFQVMNSQQTISDRYYTALYRKMLDPGLMTCSKQAMFLNLVYKSLKADIVLRRVKAFVKRLLQVTCQQMPPFICGALYLVSEILKAKPGLRSQLDDHPESDDEENFIDANDDEDMEKFTDADKETEIVKKLETEETVPETDVETKKPEVASWVHFDNLKGGKQLNKYDPFSRNPLFCGAENTSLWELKKLSVHFHPSVALFAKTILQGNYIQYSGDPLQDFTLMRFLDRFVYRNPKPHKGKENTDSVVMQPKRKHFIKDIRHLPVNSKEFLAKEESQIPVDEVFFHRYYKKVAVKEKQKRDADEESIEDVDDEEFEELIDTFEDDNCFSSGKDDMDFAGNVKKRTKGAKDNTLDEDSEGSDDELGNLDDDEVSLGSMDDEEFAEVDEDGGTFMDVLDDESESVPELEVHSKVSTKKSKRKGTDDFDFAGSFQGPRKKKRNLNDSSLFVSAEEFGHLLDENMGSKFDNIGMNAMANKDNASLKQLRWEAERDDWLHNRDAKSIIKKKKHFKKKRIKTTQKTKKQRK | 7 | 6 | 2 | 2 |  | 
